The values are deposited in ChEMBL (CHEMBL3988442, “University of Dundee, Small-Polar-MMV Screening Library” (2021)).

Protein sequences, listed by entry. Tags and fused reporters are not part of them.
UniProt E9BF75, entry or part of it: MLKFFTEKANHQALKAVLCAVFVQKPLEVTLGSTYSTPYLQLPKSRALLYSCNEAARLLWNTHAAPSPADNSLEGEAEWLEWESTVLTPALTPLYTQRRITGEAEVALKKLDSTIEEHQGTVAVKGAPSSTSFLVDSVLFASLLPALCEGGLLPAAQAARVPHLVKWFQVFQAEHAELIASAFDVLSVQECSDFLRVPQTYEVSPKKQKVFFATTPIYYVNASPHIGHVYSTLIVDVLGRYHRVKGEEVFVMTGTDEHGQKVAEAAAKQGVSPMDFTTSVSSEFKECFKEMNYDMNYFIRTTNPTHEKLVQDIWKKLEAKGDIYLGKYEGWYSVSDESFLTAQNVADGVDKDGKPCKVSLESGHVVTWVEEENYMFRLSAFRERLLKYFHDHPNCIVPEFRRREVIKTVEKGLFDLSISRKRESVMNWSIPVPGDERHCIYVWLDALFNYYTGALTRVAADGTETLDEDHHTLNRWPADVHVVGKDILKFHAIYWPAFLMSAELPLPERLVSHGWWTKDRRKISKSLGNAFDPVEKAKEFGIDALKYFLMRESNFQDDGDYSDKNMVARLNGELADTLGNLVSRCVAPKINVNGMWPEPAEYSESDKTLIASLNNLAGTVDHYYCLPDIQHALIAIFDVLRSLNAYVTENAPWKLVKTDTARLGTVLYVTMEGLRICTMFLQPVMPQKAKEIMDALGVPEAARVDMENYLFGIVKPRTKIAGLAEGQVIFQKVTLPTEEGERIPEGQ

All values are in %.
The record does not define 0% and 100%; most values in the screen are far below 50% and negative numbers occur (in some assays of this library far below -100).
The compounds are a random part of those screened.

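Primary screen of methionyl-tRNA synthetase; the read-out is not stated. Target: Methionyl-tRNA synthetase (putative), Leishmania donovani (UniProt E9BF75). The test concentration is not given. The values are filed as inhibition. Of about 68,000 compounds tested this way, about 24 (0.035%) reached 50% or more in at least one test.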

{"compound": "CN(CCCc1cnn(C)c1)c1nccc(-c2cc(C(=O)O)ccn2)n1", "Inhibition": 5.483}
{"compound": "CCNC(=O)c1ccc(NC(=O)N(C)Cc2cc(C)on2)cc1", "Inhibition": 16.26}
{"compound": "CN(Cc1ccco1)C(=O)NCC(c1cccs1)N(C)C", "stereo": "configuration not stated", "Inhibition": 12.41}
{"compound": "Cc1csc2c(=O)n(CCN3CCC(c4ccccc4)CC3)cnc12", "Inhibition": 11.15}
{"compound": "O=C1CC2(CCSC2)C(=O)N1Cc1coc(-c2cccc(F)c2)n1", "stereo": "configuration not stated", "Inhibition": 12.14}
{"compound": "COc1ccc(C(CN2CCN(C)CC2)Nc2ncccn2)cc1", "stereo": "configuration not stated", "Inhibition": 10.86}
{"compound": "CCCc1cc(N2CCC(NCC3(O)CCN(C)CC3)CC2)nc(C)n1", "Inhibition": 14.07}
{"compound": "Cc1ccc(C2CN(Cc3cnc(-c4ccccn4)s3)CCO2)o1", "stereo": "configuration not stated", "Inhibition": -0.7117}
{"compound": "Cc1[nH]c2ccc(CNc3cc(C(N)=O)ccn3)cc2c1C", "Inhibition": 13.81}
{"compound": "CCc1nnc(CN(CC)C(=O)C2CC(=O)N(CC)C2)o1", "stereo": "configuration not stated", "Inhibition": 6.138}
{"compound": "Cc1nnc(SC2CCN(c3sccc3C#N)C2=O)[nH]1", "stereo": "configuration not stated", "Inhibition": 16.51}
{"compound": "COCC1c2nnn(CC3CC3)c2CCN1C(=O)c1cnccn1", "stereo": "configuration not stated", "Inhibition": 6.529}
{"compound": "Cc1n[nH]c2c1C(c1ccc(F)cc1)SCC(=O)N2", "stereo": "configuration not stated", "Inhibition": 13.7}
{"compound": "O=c1[nH]c(NCc2cccc(OC(F)F)c2)nc2c1CCNC2", "Inhibition": 14.95}
{"compound": "O=C(NCc1ccco1)N1CCC(n2ccc(C(F)(F)F)n2)CC1", "Inhibition": 16.77}
{"compound": "COc1c(CNCc2ccnc(N3CCOCC3)c2)c(C)nn1C", "Inhibition": 17.48}
{"compound": "O=C1NC2(CCN(Cc3ccoc3)CC2)CC1c1ccncc1", "stereo": "configuration not stated", "Inhibition": 1.307}
{"compound": "COCCn1cc(C(=O)N2CCCC2c2ccccc2C)ccc1=O", "stereo": "configuration not stated", "Inhibition": 19.06}
{"compound": "Cc1nnc(CN2CCCC2c2ccsc2)o1", "stereo": "configuration not stated", "Inhibition": 13.77}
{"compound": "CN(C)CCN1C(=O)CCCC12CCCN(Cc1ccc[nH]1)C2", "stereo": "configuration not stated", "Inhibition": -1.12}
{"compound": "Cc1cncc(C2CCN(Cc3cccn3C)CC2)n1", "Inhibition": 2.588}
{"compound": "Cc1cnn(CC2CCCCN2C(=O)c2cc(C(N)=O)cs2)c1", "stereo": "configuration not stated", "Inhibition": 2.778}
{"compound": "COCC(c1cccc(C(F)(F)F)c1)N(C)C(=O)c1ccoc1", "stereo": "configuration not stated", "Inhibition": 18.58}
{"compound": "O=C1CC2(CCCCN2C(=O)c2ccsc2)CN1CC1CC1", "stereo": "configuration not stated", "Inhibition": 19.19}
{"compound": "O=C(CCCn1nnc(-c2ccc(F)cc2)n1)N1CCOCC(CO)C1", "stereo": "configuration not stated", "Inhibition": 4.577}
{"compound": "O=C(Cc1ccc2c(c1)CCO2)N1CCCC(n2cccn2)C1", "stereo": "configuration not stated", "Inhibition": 6.529}
{"compound": "O=C(COc1cccc2c1CCC2=O)NCC(F)(F)F", "Inhibition": 20.16}
{"compound": "Cc1c[nH]nc1C1CCN(c2cnccn2)C1", "stereo": "configuration not stated", "Inhibition": 8.723}
{"compound": "CC(=O)N1CCN(C(=O)C[C@@H]2C[C@@H](C(C)C)[C@H](CC#N)C=C2C)CC1", "Inhibition": 3.297}
{"compound": "CC(C)N(C)Cc1cncc2c1CCN(C(=O)c1cccc(C#N)c1)C2", "Inhibition": 6.574}

Once more, the final 2:

compound,Inhibition
CC(=O)N1CCN(C(=O)C[C@@H]2C[C@@H](C(C)C)[C@H](CC#N)C=C2C)CC1,3.297
CC(C)N(C)Cc1cncc2c1CCN(C(=O)c1cccc(C#N)c1)C2,6.574